Laboratory results: article doi:10.1101/2024.10.14.618141
Results are given in words; binding and its absence hold for the method and conditions named. Some entries that bind do so weakly or less than the wild type.

By UniProt entry, the sequences of proteins in these tests, tags left out. Where a name states a change or a piece, a line headed by the entry shows the natural chain unless it says otherwise. Chains listed by the source or under a name are the forms on record and can include a tag or linker. Residues count along the entry.
UniProt Q9NYV4: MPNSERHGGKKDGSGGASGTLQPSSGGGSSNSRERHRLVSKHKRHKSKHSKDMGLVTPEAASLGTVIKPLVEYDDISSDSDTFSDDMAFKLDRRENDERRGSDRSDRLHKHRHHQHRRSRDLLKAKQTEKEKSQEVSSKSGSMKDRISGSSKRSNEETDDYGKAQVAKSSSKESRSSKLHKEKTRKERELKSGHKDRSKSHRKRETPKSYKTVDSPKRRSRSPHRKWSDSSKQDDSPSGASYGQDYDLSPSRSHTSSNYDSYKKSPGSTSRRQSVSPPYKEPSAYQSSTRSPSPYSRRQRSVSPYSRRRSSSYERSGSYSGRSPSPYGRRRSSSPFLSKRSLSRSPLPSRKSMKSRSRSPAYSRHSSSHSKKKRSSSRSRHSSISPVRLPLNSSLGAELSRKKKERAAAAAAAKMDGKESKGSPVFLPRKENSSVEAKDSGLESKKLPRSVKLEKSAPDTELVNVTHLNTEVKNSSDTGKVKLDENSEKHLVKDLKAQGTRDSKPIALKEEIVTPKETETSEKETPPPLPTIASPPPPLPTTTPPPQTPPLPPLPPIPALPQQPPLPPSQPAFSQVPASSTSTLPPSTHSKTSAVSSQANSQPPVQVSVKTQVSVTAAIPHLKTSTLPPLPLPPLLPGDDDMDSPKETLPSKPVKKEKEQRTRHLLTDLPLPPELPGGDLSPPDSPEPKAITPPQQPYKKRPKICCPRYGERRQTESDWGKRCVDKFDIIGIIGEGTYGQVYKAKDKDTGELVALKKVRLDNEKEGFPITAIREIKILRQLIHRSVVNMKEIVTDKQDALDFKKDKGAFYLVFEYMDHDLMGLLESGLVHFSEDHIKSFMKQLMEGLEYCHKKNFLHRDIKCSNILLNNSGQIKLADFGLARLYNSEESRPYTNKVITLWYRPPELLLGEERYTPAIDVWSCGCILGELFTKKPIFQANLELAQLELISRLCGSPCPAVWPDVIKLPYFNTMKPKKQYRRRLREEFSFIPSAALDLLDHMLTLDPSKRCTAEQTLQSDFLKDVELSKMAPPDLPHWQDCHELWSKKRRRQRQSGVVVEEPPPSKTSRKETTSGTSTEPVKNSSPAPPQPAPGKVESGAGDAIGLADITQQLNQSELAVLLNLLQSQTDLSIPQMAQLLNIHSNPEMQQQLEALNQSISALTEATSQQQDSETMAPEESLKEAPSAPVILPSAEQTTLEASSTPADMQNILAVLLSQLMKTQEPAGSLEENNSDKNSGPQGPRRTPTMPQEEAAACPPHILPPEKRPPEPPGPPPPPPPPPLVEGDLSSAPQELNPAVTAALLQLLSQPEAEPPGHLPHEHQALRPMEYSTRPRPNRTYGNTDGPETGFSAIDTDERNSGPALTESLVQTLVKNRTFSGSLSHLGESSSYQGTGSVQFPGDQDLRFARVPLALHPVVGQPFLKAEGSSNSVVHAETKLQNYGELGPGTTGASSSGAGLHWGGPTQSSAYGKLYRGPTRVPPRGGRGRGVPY
Flag(N)-CDK12ΔCTD (1-1082): residues 1-1082 of Q9NYV4
Flag(N)-CDK12ΔNTD (700-1490): residues 700-1490 of Q9NYV4
Flag(N)-CDK12-KiD (700-1082): residues 700-1082 of Q9NYV4
Flag(N)-CDK12ΔRS (Δ104-380) (Q9NYV4, form named): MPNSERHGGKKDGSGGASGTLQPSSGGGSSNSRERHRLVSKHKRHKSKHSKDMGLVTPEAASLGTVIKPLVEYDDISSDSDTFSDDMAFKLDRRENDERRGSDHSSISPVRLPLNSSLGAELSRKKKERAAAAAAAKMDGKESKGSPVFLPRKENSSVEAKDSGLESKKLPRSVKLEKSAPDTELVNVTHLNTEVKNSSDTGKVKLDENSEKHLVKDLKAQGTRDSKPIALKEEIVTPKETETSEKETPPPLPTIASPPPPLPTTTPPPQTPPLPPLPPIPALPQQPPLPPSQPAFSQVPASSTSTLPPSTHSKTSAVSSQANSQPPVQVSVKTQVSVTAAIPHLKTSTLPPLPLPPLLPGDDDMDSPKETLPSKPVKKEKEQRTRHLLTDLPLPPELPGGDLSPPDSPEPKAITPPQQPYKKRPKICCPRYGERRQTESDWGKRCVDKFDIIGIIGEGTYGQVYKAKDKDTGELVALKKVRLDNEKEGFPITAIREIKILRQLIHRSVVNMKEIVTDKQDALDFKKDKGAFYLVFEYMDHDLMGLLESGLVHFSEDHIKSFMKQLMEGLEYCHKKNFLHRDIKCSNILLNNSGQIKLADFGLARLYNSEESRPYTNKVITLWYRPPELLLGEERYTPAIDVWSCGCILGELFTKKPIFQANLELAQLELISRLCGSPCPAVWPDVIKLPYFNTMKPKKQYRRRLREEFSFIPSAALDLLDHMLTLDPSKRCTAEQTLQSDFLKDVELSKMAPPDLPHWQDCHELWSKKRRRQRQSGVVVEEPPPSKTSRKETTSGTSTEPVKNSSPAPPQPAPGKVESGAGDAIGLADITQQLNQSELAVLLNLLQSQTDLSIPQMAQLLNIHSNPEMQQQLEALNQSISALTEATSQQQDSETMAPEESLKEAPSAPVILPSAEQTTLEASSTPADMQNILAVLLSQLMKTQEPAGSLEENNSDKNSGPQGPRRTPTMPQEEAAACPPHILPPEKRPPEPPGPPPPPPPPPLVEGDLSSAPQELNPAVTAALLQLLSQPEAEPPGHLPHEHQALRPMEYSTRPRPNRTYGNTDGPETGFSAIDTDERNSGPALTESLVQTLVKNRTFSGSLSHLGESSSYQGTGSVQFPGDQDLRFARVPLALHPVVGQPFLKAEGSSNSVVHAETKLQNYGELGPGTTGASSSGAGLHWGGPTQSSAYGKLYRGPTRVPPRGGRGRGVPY
UniProt Q14004: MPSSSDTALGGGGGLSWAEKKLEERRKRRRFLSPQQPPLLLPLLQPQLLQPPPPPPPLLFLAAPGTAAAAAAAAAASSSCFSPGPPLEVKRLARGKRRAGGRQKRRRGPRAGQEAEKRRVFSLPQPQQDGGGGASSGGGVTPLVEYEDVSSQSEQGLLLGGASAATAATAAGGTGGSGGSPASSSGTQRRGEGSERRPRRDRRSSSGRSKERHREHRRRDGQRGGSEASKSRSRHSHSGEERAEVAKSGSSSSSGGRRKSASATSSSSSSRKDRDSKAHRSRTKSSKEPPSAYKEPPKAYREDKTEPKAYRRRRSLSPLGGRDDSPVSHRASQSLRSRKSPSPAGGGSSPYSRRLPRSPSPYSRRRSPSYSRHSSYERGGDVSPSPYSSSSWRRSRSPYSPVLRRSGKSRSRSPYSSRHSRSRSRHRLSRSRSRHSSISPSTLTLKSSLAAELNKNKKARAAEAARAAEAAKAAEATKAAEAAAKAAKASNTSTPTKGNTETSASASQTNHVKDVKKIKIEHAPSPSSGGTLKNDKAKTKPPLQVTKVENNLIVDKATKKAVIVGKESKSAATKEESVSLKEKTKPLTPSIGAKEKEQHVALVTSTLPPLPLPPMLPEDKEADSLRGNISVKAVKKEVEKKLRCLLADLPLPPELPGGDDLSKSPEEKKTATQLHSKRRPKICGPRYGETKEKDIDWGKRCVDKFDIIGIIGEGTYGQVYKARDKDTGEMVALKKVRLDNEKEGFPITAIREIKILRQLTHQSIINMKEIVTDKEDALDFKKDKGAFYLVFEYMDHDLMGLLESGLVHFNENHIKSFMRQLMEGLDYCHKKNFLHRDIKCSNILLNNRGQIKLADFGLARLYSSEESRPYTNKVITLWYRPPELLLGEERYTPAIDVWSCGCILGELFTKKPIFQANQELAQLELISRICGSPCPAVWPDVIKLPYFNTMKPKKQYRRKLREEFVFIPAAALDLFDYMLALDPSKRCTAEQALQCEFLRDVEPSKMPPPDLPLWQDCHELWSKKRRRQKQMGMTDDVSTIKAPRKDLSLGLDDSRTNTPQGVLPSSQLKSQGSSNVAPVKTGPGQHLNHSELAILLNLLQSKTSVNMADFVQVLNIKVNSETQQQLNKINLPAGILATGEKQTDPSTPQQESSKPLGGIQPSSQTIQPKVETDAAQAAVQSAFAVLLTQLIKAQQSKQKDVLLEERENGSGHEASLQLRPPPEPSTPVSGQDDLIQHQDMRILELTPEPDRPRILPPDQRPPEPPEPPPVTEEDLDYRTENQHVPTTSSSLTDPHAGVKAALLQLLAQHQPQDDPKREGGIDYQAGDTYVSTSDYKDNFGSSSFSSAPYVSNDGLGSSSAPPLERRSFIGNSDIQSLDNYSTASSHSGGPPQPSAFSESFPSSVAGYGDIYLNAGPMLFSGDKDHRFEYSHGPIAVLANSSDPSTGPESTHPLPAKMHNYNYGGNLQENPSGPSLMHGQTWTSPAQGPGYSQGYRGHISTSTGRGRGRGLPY
UniProt O75909: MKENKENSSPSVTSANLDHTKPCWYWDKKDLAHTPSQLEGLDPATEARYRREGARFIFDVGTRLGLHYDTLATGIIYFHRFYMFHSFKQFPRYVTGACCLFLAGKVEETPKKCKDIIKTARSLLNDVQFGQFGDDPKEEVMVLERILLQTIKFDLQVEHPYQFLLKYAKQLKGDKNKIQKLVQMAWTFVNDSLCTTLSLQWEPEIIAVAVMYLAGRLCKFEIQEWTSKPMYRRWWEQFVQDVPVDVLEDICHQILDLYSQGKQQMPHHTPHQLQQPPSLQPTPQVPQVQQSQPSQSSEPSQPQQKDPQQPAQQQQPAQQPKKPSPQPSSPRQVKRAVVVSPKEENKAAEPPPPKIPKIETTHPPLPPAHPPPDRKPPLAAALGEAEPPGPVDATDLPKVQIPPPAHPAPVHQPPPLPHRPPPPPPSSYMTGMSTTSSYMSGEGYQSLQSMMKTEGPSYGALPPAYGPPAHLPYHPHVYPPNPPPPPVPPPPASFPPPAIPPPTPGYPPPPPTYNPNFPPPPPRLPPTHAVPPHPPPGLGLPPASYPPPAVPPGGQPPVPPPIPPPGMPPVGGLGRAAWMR

Tests used:
Assay in all cases: co-purification of co-expressed proteins
[1] = molecular target: Flag(N)-CDK12, full length (human) (UniProt Q9NYV4)
[2] = molecular target: Flag(N)-CDK12-KiD (700-1082) (human) (UniProt Q9NYV4)
[3] = molecular target: Flag(N)-CDK12ΔCTD (1-1082) (human) (UniProt Q9NYV4)
[4] = molecular target: Flag(N)-CDK12ΔNTD (700-1490) (human) (UniProt Q9NYV4)
[5] = molecular target: Flag(N)-CDK12ΔRS (Δ104-380) (human) (UniProt Q9NYV4)
[6] = molecular target: Flag(N)-CDK13, full length (human) (UniProt Q14004)

Measured: binding

Cyclin K (from UniProt O75909 1-580)
binds: all assays above
